Results as given in article PMC7948397.

Amino acid sequences for entries named in this document (tags omitted). A change or cut given only in a name is not applied to a line headed by its entry. Residues count along the entry.
UniProt P17927: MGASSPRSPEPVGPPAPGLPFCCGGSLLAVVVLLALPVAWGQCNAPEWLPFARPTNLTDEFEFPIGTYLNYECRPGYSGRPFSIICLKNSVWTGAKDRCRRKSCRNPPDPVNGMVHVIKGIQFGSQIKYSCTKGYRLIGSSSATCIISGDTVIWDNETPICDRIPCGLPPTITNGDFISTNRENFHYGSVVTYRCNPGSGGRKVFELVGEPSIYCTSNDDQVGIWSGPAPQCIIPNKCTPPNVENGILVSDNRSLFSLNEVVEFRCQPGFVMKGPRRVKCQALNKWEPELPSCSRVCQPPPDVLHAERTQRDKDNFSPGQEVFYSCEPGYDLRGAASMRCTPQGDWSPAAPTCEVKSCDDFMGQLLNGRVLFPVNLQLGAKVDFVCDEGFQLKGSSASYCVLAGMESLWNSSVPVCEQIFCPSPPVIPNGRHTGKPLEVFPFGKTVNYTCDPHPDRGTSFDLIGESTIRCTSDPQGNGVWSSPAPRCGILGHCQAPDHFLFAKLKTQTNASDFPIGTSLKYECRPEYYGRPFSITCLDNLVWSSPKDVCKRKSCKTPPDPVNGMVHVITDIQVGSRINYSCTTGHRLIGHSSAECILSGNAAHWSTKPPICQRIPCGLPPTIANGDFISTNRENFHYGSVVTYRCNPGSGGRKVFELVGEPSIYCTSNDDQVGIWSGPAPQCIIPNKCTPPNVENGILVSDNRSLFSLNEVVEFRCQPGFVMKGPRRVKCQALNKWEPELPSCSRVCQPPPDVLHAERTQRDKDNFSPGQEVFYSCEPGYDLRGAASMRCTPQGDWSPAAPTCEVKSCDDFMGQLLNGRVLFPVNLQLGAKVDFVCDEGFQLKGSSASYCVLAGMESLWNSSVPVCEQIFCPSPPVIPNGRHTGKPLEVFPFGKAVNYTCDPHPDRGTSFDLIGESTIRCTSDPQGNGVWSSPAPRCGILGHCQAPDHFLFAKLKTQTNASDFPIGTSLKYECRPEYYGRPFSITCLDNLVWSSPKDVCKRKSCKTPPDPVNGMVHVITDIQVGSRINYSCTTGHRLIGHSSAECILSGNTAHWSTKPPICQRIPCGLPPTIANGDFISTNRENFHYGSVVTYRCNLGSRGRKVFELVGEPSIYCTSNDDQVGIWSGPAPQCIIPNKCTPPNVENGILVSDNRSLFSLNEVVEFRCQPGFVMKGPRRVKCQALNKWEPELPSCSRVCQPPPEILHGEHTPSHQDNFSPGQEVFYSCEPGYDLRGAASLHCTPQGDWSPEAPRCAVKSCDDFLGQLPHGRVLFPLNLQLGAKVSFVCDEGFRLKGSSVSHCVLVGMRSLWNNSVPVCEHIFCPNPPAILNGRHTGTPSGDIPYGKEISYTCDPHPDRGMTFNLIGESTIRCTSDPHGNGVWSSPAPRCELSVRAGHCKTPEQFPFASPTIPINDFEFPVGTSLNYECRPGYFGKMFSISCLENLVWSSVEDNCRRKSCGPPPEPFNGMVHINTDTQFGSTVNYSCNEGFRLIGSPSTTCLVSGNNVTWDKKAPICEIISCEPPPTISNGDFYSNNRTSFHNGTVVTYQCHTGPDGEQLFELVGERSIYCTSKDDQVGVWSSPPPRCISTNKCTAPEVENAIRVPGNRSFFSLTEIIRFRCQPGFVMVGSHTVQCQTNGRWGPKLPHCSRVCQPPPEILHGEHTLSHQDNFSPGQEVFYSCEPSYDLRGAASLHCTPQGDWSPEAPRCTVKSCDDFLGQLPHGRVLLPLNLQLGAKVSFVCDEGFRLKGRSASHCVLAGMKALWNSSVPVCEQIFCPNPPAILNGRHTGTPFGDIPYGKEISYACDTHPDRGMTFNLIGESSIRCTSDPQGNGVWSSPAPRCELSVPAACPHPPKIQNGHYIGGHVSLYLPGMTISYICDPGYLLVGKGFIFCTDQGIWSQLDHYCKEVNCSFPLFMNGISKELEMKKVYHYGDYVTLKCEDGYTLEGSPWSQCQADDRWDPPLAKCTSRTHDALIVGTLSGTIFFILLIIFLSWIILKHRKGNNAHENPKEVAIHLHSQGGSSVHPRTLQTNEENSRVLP
HuCR1(1971), soluble full-length extracellular domain of human complement receptor 1 (LHR-A, -B, -C and -D): residues 42-1971 of P17927
HuCR1(1392)/CSL040, soluble human complement receptor 1 truncated at amino acid 1392 (LHR-A, LHR-B and LHR-C): residues 42-1392 of P17927
UniProt P0C0L4: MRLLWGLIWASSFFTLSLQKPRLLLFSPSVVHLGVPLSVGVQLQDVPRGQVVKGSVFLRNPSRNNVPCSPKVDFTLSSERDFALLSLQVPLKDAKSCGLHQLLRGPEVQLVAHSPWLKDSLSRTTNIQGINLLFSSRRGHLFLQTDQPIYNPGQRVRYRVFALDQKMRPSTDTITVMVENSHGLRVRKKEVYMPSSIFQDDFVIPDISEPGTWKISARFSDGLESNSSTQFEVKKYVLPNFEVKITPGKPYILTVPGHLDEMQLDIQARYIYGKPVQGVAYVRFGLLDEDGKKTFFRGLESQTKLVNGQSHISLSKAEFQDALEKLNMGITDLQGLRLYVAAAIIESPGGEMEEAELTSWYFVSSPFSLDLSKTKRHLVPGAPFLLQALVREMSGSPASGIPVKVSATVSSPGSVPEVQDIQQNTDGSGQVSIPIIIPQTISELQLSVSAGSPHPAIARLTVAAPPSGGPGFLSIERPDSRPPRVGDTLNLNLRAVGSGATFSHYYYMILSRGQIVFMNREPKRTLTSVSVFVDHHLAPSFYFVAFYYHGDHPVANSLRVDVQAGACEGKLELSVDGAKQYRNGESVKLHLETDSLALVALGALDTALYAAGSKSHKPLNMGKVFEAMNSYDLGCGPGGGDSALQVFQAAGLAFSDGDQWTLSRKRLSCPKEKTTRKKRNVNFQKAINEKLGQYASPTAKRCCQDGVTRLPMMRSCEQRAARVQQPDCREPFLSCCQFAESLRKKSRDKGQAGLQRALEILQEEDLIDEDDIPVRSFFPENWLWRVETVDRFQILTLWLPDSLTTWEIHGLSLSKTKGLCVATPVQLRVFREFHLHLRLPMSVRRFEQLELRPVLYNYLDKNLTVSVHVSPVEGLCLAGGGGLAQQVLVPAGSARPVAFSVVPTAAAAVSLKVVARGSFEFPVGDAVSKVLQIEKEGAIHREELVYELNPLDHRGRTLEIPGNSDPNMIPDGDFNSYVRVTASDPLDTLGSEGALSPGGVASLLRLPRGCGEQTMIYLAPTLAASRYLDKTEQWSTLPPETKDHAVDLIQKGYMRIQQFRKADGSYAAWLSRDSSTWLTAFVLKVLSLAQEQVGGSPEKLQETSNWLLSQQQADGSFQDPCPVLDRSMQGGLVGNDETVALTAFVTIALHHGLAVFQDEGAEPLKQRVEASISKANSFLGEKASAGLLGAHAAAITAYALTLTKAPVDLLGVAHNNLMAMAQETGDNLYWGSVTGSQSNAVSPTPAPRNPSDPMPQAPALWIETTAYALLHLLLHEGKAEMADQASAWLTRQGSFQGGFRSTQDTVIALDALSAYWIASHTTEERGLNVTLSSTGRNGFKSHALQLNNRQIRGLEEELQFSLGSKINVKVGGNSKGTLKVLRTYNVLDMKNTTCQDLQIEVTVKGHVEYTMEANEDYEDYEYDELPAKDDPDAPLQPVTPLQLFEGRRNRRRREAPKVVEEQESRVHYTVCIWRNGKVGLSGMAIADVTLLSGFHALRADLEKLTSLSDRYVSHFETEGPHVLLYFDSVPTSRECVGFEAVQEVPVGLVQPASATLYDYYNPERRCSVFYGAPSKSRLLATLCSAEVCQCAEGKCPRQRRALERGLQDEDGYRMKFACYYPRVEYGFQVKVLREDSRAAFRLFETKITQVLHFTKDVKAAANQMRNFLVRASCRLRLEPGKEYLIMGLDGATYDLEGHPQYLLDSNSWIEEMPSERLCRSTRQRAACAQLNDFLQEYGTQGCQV

Columns and labels:
[1] = target: HuCR1(1971), soluble full-length extracellular domain of human complement receptor 1 (LHR-A, -B, -C and -D) (human) (UniProt P17927); assay: SPR; His-tagged CSL040 or HuCR1(1971) captured on a Ni-NTA chip to 75-100 RU, C3b or C4b injected as analyte; Biacore T200, 37 °C; 10 mM Hepes, 150 mM NaCl, 0.1% bovine serum albumin, pH 7.3; 1:1 model with a term for mass transport; both purified
[2] = target: HuCR1(1392)/CSL040, soluble human complement receptor 1 truncated at amino acid 1392 (LHR-A, LHR-B and LHR-C) (human) (UniProt P17927); assay: as above

plasma-derived human C4b (from UniProt P0C0L4) (ligand)
binding [1]: binds | binding [2]: binds

These are yes or no findings as the source states them, for the method shown. Binding can be weak; no strength is given.
